Data from the supplement of paper PMC8616043.
Counter-ions that a name gives are not always drawn. The list shows a part of the results. Repeats in this data set agree poorly, so a single value says little.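 The cells are human U-2 OS cells that stably carry a GFP sensor with a nuclear import signal and a classical export signal. They were transfected to make PR50, a 50-repeat proline–arginine dipeptide protein from the ALS/FTD gene C9ORF72. Each well's nuclear-minus-cytoplasm GFP signal was scaled from in-plate DMSO (low) to PR-only wells (high), then scored against the other test wells on the plate; compounds scoring well below zero were called hits that reverse the PR effect.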

Test system: U-2 OS NCT-C biosensor cells expressing PR50
Assay: Z-score of normalised NCT-C biosensor translocation index in PR50-expressing cells; higher = more nuclear biosensor (more disrupted nuclear export)
Settings: 3 µM; 24 h

| Structure (SMILES) | Z-score |
| --- | --- |
| CCN(CC)CCn1c(=O)c(Cc2ccc(OC)cc2)nc2ccccc21 [Caroverine HCl] | inactive: -0.404 |
| CO[C@H]1C[C@@H]2CC[C@@H](C)[C@@](O)(O2)C(=O)C(=O)N2CCCC[C@H]2C(=O)O[C@H]([C@H](C)C[C@@H]2CC[C@@H](O)[C@H](OC)C2)CC(=O)[C@H](C)/C=C(\C)[C@@H](O)[C@@H](OC)C(=O)[C@H](C)C[C@H](C)/C=C/C=C/C=C/1C [Rapamycin] | inactive: -0.623 |
| CO[C@H]1C[C@@H]2CC[C@@H](C)[C@@](O)(O2)C(=O)C(=O)N2CCCC[C@H]2C(=O)O[C@H]([C@H](C)C[C@@H]2CC[C@@H](O)[C@H](OC)C2)CC(=O)[C@H](C)/C=C(\C)[C@@H](O)[C@@H](OC)C(=O)[C@H](C)C[C@H](C)/C=C/C=C/C=C/1C [Sirolimus (Rapamycin)] | inactive: 0.947 |
| C#C[C@]1(O)CC[C@H]2[C@@H]3CCC4=CC(=O)CC[C@@H]4[C@H]3CC[C@@]21C [Norethindrone] | inactive: 0.16 |
| COc1cc2c(CCNC(C)=O)c[nH]c2cc1O [6-Hydroxy melatonin] | inactive: -0.278 |
| CCCC(C)NC(=O)c1ccc(Cl)c(Cl)c1 (stereo not given) | inactive: 0.338 |
| O=C1NC(=O)/C(=C\c2ccc3nccnc3c2)S1 | inactive: -0.258 |
| CO[C@@]1(NC(=O)C2SC(=C(C(N)=O)C(=O)O)S2)C(=O)N2C(C(=O)O)=C(CSc3nnnn3C)CS[C@@H]21 (stereo not given in full) [Cefotetan Disodium] | inactive: -0.258 |
| CN(C)CCCN1c2ccccc2CCc2ccc(Cl)cc21 [Clomipramine·HCl] | inactive: -0.338 |
| CN(C)CCCN1c2ccccc2CCc2ccc(Cl)cc21 [Clomipramine hydrochloride] | inactive: -0.649 |
| Nc1ccc(O)c(C(=O)O)c1 [Mesalamine (5-Aminosalicylic Acid)] | inactive: 0.918 |
| CNC(=O)[C@H]1O[C@@H](n2cnc3c(NCc4ccc(N)cc4)ncnc32)[C@H](O)[C@@H]1O | inactive: 0.141 |
| COc1cc(N2CCN(C)CC2)ccc1Nc1nccc(-c2cn(C)c3cnccc23)n1 | inactive: -0.245 |
| COc1cc2c(cc1O)CC[C@@H]1[C@@H]2CC[C@]2(C)[C@@H](O)CC[C@@H]12 [2-methoxyestradiol] | inactive: -0.664 |
| C[C@@H]1O[C@@H](Oc2c(-c3ccc(O)c(O)c3)oc3cc(O)cc(O)c3c2=O)[C@H](O)[C@H](O)[C@H]1O [Quercitrin] | inactive: 1.42 |
| CN(C)CCCNC(=O)c1ccc(-c2cc(O)c3ncccc3c2)cc1 | inactive: -0.314 |
| O=C(O)Cc1ccccc1Nc1c(Cl)cccc1Cl [Diclofenac sodium] | inactive: -0.64 |
| O=c1[nH]cc(F)c(=O)[nH]1 [Fluorouracil (5-Fluorouracil)] | inactive: 0.354 |
| O=c1[nH]cc(F)c(=O)[nH]1 [5-Fluorouracil] | inactive: -0.587 |
| C[C@]12C=CC(=O)C=C1CC[C@@H]1[C@@H]2[C@@H](O)C[C@@]2(C)[C@H]1CC[C@]2(O)C(=O)CO [Prednisolone] | inactive: -0.423 |
| CC(C)Cc1ccc([C@H](C)C(=O)O)cc1 [S(+)-Ibuprofen] | inactive: -0.0191 |
| CC(C)C(=O)SCCCCCCC(=O)Nc1nc(-c2ccccc2)cs1 | active: -2.28 |

| Structure (SMILES) | Z-score |
| --- | --- |
| CC(=O)Oc1cc(C(F)(F)F)ccc1C(=O)O [Triflusal] | inactive: -0.566 |
| C[N+](C)(C)CCO.[Br-] [Choline bromide] | inactive: 3.13 |
| N=c1ccn2c(n1)O[C@H]1[C@H](O)[C@@H](CO)O[C@H]12 [Ancitabine hydrochloride] | inactive: -0.285 |
| O=C1NC(=O)/C(=C/c2ccc(-c3ccc(F)cc3O)o2)S1 | inactive: -0.193 |
| CC[N+](CC)(CC)CC [Tetraethylammonium chloride] | inactive: -0.559 |
| COc1ccc(CCN(C)CCc2ccc(OC)c(OC)c2)cc1OC [YS-035  hydrochloride] | inactive: -0.362 |
| Cc1cccc(-c2[nH]c(C(C)(C)C)nc2-c2ccc3nccnc3c2)n1 | inactive: 0.22 |
| CC[C@H](C)n1cc(C)c2c(C(=O)NCc3c(C)cc(C)[nH]c3=O)cc(-c3ccc(N4CCNCC4)nc3)cc21 | inactive: -1.12 |
| O=c1c(O)c(-c2cc(O)c(O)c(O)c2)oc2cc(O)ccc12 [Robinetin] | inactive: -0.671 |
| Cc1ccccc1/C=C/C1=NCCN1 [Metrazoline oxalate] | inactive: 0.162 |
| O=C(O)C1CCCNC1 (racemic) [(±)-Nipecotic acid] | inactive: 0.107 |
| CN(C)[C@@H]1C(O)=C(C(N)=O)C(=O)[C@@]2(O)C(O)=C3C(=O)c4c(O)cccc4[C@@](C)(O)[C@H]3C[C@@H]12 [Tetracycline] | inactive: 0.289 |
| C[C@H](N[C@@H](CCc1ccccc1)C(=O)O)C(=O)N1CCC[C@H]1C(=O)O [Enalaprilat dihydrate] | inactive: 0.258 |
| NC(=O)N[C@@H](CCC(=O)O)C(=O)O [Carglumic Acid] | inactive: 0.164 |
| COCCCC/C(=N\OCCN)c1ccc(C(F)(F)F)cc1 [Fluvoxamine maleate] | inactive: 0.255 |
| COCCCC/C(=N\OCCN)c1ccc(C(F)(F)F)cc1 [Fluvoxamine Maleate] | inactive: 0.964 |
| COC(=O)[C@H](c1ccccc1Cl)N1CCc2sccc2C1 [Clopidogrel Bisulfate] | inactive: 0.155 |
| C[C@]12CCC(=O)C=C1CC[C@@H]1[C@@H]2C(=O)C[C@@]2(C)[C@H]1CC[C@]2(O)C(=O)CO [Cortisone] | inactive: 3.07 |
| O=C1/C(=C/c2cccs2)CC/C1=C\c1cccs1 | inactive: -0.219 |
| Nc1nc(F)nc2c1ncn2[C@@H]1O[C@H](COP(=O)(O)O)[C@@H](O)[C@@H]1O [Fludarabine Phosphate] | inactive: 0.64 |
| CO[C@H]1[C@H](OC(=O)c2ccc(C)[nH]2)[C@H](O)[C@@H](Oc2ccc3c(O)c(NC(=O)c4c[nH]c(C(=O)Nc5c(O)c6ccc(O[C@H]7OC(C)(C)[C@@H](OC)[C@H](OC(=O)c8ccc(C)[nH]8)[C@@H]7O)c(C)c6oc5=O)c4C)c(=O)oc3c2C)OC1(C)C [Coumermycin A1] | inactive: 0.0651 |
| O=C(OCCN1CCOCC1)C1(c2ccccc2)CCCCC1 | inactive: -0.351 |

2 entries from above, field by field:
CC[N+](CC)(CC)CC [Tetraethylammonium chloride]
  Z-score: inactive: -0.559
CN(C)[C@@H]1C(O)=C(C(N)=O)C(=O)[C@@]2(O)C(O)=C3C(=O)c4c(O)cccc4[C@@](C)(O)[C@H]3C[C@@H]12 [Tetracycline]
  Z-score: inactive: 0.289

Next results.

| Structure (SMILES) | Z-score |
| --- | --- |
| COc1ccc(-c2coc3cc(O)ccc3c2=O)cc1 [Formononetin] | inactive: -1.04 |
| Clc1ccc2c(c1)C(N1CCNCC1)=Nc1ccccc1O2 [Amoxapine] | inactive: 0.847 |
| O=C(O)CCCc1c[nH]c2ccccc12 [Indole-3-butyric acid] | inactive: -0.318 |
| CC(C)(Oc1ccc(CCNC(=O)c2ccc(Cl)cc2)cc1)C(=O)O [Bezafibrate] | inactive: -0.651 |
| OCCN1CCN(CCCN2c3ccccc3Sc3ccc(C(F)(F)F)cc32)CC1 [Fluphenazine dihydrochloride] | inactive: -0.175 |
| OCCN1CCN(CCCN2c3ccccc3Sc3ccc(C(F)(F)F)cc32)CC1 [Fluphenazine· 2HCl] | inactive: 0.416 |
| NCCCCC(=O)O [5-Aminovaleric acid hydrochloride] | inactive: 0.0263 |
| CC(C(=O)O)c1ccc(CC2CCCC2=O)cc1 (stereo not given) [loxoprofen] | inactive: 0.765 |
| CC[C@H]1OC(=O)[C@H](C)[C@@H](O[C@H]2C[C@@](C)(OC)[C@@H](O)[C@H](C)O2)[C@H](C)[C@@H](O[C@@H]2O[C@H](C)C[C@H](N(C)C)[C@H]2O)[C@](C)(O)C[C@@H](C)C(=O)[C@H](C)[C@@H](O)[C@]1(C)O [Erythromycin] | inactive: -0.0223 |
| CCCSc1ccc2[nH]c(NC(=O)OC)nc2c1 [Albendazole] | inactive: 0.38 |
| CO[C@H]1/C=C/O[C@@]2(C)Oc3c(C)c(O)c4c(O)c(c(/C=N/N5CCN(C)CC5)c(O)c4c3C2=O)NC(=O)/C(C)=C\C=C\[C@H](C)[C@H](O)[C@@H](C)[C@@H](O)[C@@H](C)[C@H](OC(C)=O)[C@@H]1C [Rifampin (Rifampicin)] | inactive: 1.34 |
| CO[C@H]1/C=C/O[C@@]2(C)Oc3c(C)c(O)c4c(O)c(c(/C=N/N5CCN(C)CC5)c(O)c4c3C2=O)NC(=O)/C(C)=C\C=C\[C@H](C)[C@H](O)[C@@H](C)[C@@H](O)[C@@H](C)[C@H](OC(C)=O)[C@@H]1C [Rifampicin] | inactive: -0.46 |
| CC(C)NCC(O)c1ccc(O)c(O)c1 (racemic) [(±)-Isoproterenol hydrochloride] | inactive: 0.47 |
| CC(C)NCC(O)c1ccc(O)c(O)c1 (racemic) [(±) Isoproterenol·HCl] | inactive: 0.161 |
| CC(C)(C)c1ccc(/C=C/C(=O)Nc2ccc3c(c2)OCCO3)cc1 | inactive: -0.294 |
| CC[n+]1c(/C=C/C=C2/N(C)c3ccccc3C2(C)C)sc2ccccc21 | inactive: 2.12 |
| CCc1ccc(CCOc2ccc(CC3SC(=O)NC3=O)cc2)nc1 (stereo not given) [Pioglitazone·HCl] | inactive: 0.0226 |
| Cc1ccc(N(CC2=NCCN2)c2cccc(O)c2)cc1 [Phentolamine·HCl] | inactive: 1.03 |
| Cc1ccc(N(CC2=NCCN2)c2cccc(O)c2)cc1 [Phentolamine mesylate] | inactive: -0.834 |
| Oc1ccc(C2CNCCc3c2cc(O)c(O)c3Cl)cc1 (stereo not given) [Fenoldopam Mesylate] | inactive: 0.134 |
| Oc1ccc(C2CNCCc3c2cc(O)c(O)c3Cl)cc1 (stereo not given) [Fenoldopam monohydrobromid e] | inactive: 0.0955 |

Reformatted: entries from further up
Structure (SMILES)	Z-score
C#C[C@]1(O)CC[C@H]2[C@@H]3CCC4=CC(=O)CC[C@@H]4[C@H]3CC[C@@]21C [Norethindrone]	inactive: 0.16
O=C1NC(=O)/C(=C\c2ccc3nccnc3c2)S1	inactive: -0.258
Nc1ccc(O)c(C(=O)O)c1 [Mesalamine (5-Aminosalicylic Acid)]	inactive: 0.918
CNC(=O)[C@H]1O[C@@H](n2cnc3c(NCc4ccc(N)cc4)ncnc32)[C@H](O)[C@@H]1O	inactive: 0.141
CN(C)CCCNC(=O)c1ccc(-c2cc(O)c3ncccc3c2)cc1	inactive: -0.314
CC(C)C(=O)SCCCCCCC(=O)Nc1nc(-c2ccccc2)cs1	active: -2.28
C[N+](C)(C)CCO.[Br-] [Choline bromide]	inactive: 3.13
O=C(O)C1CCCNC1 (racemic) [(±)-Nipecotic acid]	inactive: 0.107
COCCCC/C(=N\OCCN)c1ccc(C(F)(F)F)cc1 [Fluvoxamine Maleate]	inactive: 0.964
COC(=O)[C@H](c1ccccc1Cl)N1CCc2sccc2C1 [Clopidogrel Bisulfate]	inactive: 0.155
Nc1nc(F)nc2c1ncn2[C@@H]1O[C@H](COP(=O)(O)O)[C@@H](O)[C@@H]1O [Fludarabine Phosphate]	inactive: 0.64
O=C(OCCN1CCOCC1)C1(c2ccccc2)CCCCC1	inactive: -0.351
COc1ccc(-c2coc3cc(O)ccc3c2=O)cc1 [Formononetin]	inactive: -1.04
CC(C(=O)O)c1ccc(CC2CCCC2=O)cc1 (stereo not given) [loxoprofen]	inactive: 0.765
CC[C@H]1OC(=O)[C@H](C)[C@@H](O[C@H]2C[C@@](C)(OC)[C@@H](O)[C@H](C)O2)[C@H](C)[C@@H](O[C@@H]2O[C@H](C)C[C@H](N(C)C)[C@H]2O)[C@](C)(O)C[C@@H](C)C(=O)[C@H](C)[C@@H](O)[C@]1(C)O [Erythromycin]	inactive: -0.0223
CC[n+]1c(/C=C/C=C2/N(C)c3ccccc3C2(C)C)sc2ccccc21	inactive: 2.12
CCc1ccc(CCOc2ccc(CC3SC(=O)NC3=O)cc2)nc1 (stereo not given) [Pioglitazone·HCl]	inactive: 0.0226
